# Assay results as given in the supplement of paper PMC8728848.
# This is one part of the list.
# Tests used:
# Assay in all cases: glycan array binding signal (z-score within array); higher = stronger binding
# Conditions in all cases: glycan notation: IUPAC condensed, linker removed; mutation: R276L
# [1] = molecular target: Gal3S(b1-3)[Fuc(a1-4)]GlcNAc
# Summary of the method: (§1)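 From the Consortium for Functional Glycomics database, 3228 arrays were curated, keeping only those whose protein sequence was available. Binding is given as a within-array Z-score averaged across arrays sharing a protein sequence and across linkers. Negative Z-scores can be read as non-binding.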
# Gal3S(b1-4)Glc = molecular target: Gal3S(b1-4)Glc
# Summary of the method: as §1
# Gal3S(b1-4)Glc6S = molecular target: Gal3S(b1-4)Glc6S
# Summary of the method: as §1
# Gal3S(b1-4)GlcNAc = molecular target: Gal3S(b1-4)GlcNAc
# Summary of the method: as §1
# [2] = molecular target: Gal3S(b1-4)[Fuc(a1-3)]Glc6S
# Summary of the method: as §1
# [3] = molecular target: Gal3S(b1-4)[Fuc(a1-3)]GlcNAc
# Summary of the method: as §1
# [4] = molecular target: Gal3S(b1-4)[Fuc(a1-3)]GlcNAc6S
# Summary of the method: as §1
# Gal3S4S(b1-4)GlcNAc = molecular target: Gal3S4S(b1-4)GlcNAc
# Summary of the method: as §1
# Gal3S6S(b1-4)GlcNAc = molecular target: Gal3S6S(b1-4)GlcNAc
# Summary of the method: as §1
# Gal3S6S(b1-4)GlcNAc6S = molecular target: Gal3S6S(b1-4)GlcNAc6S
# Summary of the method: as §1
# Gal4S(b1-4)GlcNAc = molecular target: Gal4S(b1-4)GlcNAc
# Summary of the method: as §1
# Gal4S6S(b1-4)GlcNAc = molecular target: Gal4S6S(b1-4)GlcNAc
# Summary of the method: as §1
# Gal6P(b1-4)GlcNAc = molecular target: Gal6P(b1-4)GlcNAc
# Summary of the method: as §1
# Gal6S(b1-3)GlcNAc = molecular target: Gal6S(b1-3)GlcNAc
# Summary of the method: as §1
# Gal6S(b1-3)GlcNAc6S = molecular target: Gal6S(b1-3)GlcNAc6S
# Summary of the method: as §1
# Gal6S(b1-4)Glc = molecular target: Gal6S(b1-4)Glc
# Summary of the method: as §1
# Gal6S(b1-4)Glc6S = molecular target: Gal6S(b1-4)Glc6S
# Summary of the method: as §1
# Gal6S(b1-4)GlcNAc = molecular target: Gal6S(b1-4)GlcNAc
# Summary of the method: as §1
# Gal6S(b1-4)GlcNAc6S = molecular target: Gal6S(b1-4)GlcNAc6S
# Summary of the method: as §1
# GalNAc(a1-3)Gal = molecular target: GalNAc(a1-3)Gal
# Summary of the method: as §1
# GalNAc(a1-3)GalNAc = molecular target: GalNAc(a1-3)GalNAc
# Summary of the method: as §1
# [5] = molecular target: GalNAc(a1-3)GalNAc(b1-3)Gal(a1-4)Gal(b1-4)Glc
# Summary of the method: as §1
# [6] = molecular target: GalNAc(a1-3)GalNAc(b1-3)Gal(a1-4)Gal(b1-4)GlcNAc
# Summary of the method: as §1
# GalNAc(b1-3)Gal = molecular target: GalNAc(b1-3)Gal
# Summary of the method: as §1
# [7] = molecular target: GalNAc(b1-3)Gal(a1-4)Gal(b1-4)GlcNAc
# Summary of the method: as §1
# [8] = molecular target: GalNAc(b1-3)Gal(a1-4)Gal(b1-4)GlcNAc(b1-3)Gal(b1-4)Glc
# Summary of the method: as §1
# [9] = molecular target: GalNAc(b1-3)Gal(a1-6)Gal(b1-4)Glc
# Summary of the method: as §1
# GalNAc(b1-3)GalNAc = molecular target: GalNAc(b1-3)GalNAc
# Summary of the method: as §1
# GalNAc(b1-3)GlcNAc = molecular target: GalNAc(b1-3)GlcNAc
# Summary of the method: as §1
# GalNAc(b1-4)Gal(b1-4)Glc = molecular target: GalNAc(b1-4)Gal(b1-4)Glc
# Summary of the method: as §1
# GalNAc(b1-4)GlcNAc = molecular target: GalNAc(b1-4)GlcNAc
# Summary of the method: as §1
# [10] = molecular target: GalNAc(b1-4)GlcNAc(b1-2)Man
# Summary of the method: as §1
# [11] = molecular target: GalNAc(b1-4)GlcNAc(b1-2)Man(a1-3)[GalNAc(b1-4)GlcNAc(b1-2)Man(a1-6)]Man(b1-4)GlcNAc(b1-4)GlcNAc
# Summary of the method: as §1
# [12] = molecular target: GalNAc(b1-4)GlcNAc(b1-3)GalNAc(b1-4)GlcNAc
# Summary of the method: as §1
# GalNAc(b1-4)GlcNAc6S = molecular target: GalNAc(b1-4)GlcNAc6S
# Summary of the method: as §1
# GalNAc(b1-6)GalNAc = molecular target: GalNAc(b1-6)GalNAc
# Summary of the method: as §1
# GalNAc3S(b1-4)GlcNAc = molecular target: GalNAc3S(b1-4)GlcNAc
# Summary of the method: as §1
# GalNAc3S(b1-4)GlcNAc3S = molecular target: GalNAc3S(b1-4)GlcNAc3S
# Summary of the method: as §1
# [13] = molecular target: GalNAc3S(b1-4)[Fuc(a1-3)]GlcNAc
# Summary of the method: as §1
# GalNAc4S6S(b1-4)GlcNAc = molecular target: GalNAc4S6S(b1-4)GlcNAc
# Summary of the method: as §1
# GalNAc6S(b1-4)GlcNAc = molecular target: GalNAc6S(b1-4)GlcNAc
# Summary of the method: as §1
# Glc(a1-4)Glc = molecular target: Glc(a1-4)Glc
# Summary of the method: as §1
# [14] = molecular target: Glc(a1-4)Glc(a1-4)Glc(a1-4)Glc
# Summary of the method: as §1
# Glc(a1-6)Glc(a1-6)Glc = molecular target: Glc(a1-6)Glc(a1-6)Glc
# Summary of the method: as §1
# [15] = molecular target: Glc(a1-6)Glc(a1-6)Glc(a1-6)Glc
# Summary of the method: as §1
binder,measurement,setting,value
"SUN4P (Saccharomyces cerevisiae), P53616 (protein) MGSSHHHHHHSSGLVPRGSHNGSIYGDLADFSGPYEKFEDGTIPCGQFPSGQGVIPISWLDEGGWSGVENTDTSTGGSCKEGSYCSYACQPGMSKTQWPSDQPSDGRSIGGLLCKDGYLYRSNTDTDYLCEWGVDAAYVVSELSNDVAICLTDYPGTENMVIPTYVQAGDSLPLTVVDQDTYYTWQGLKTSAQYYVNNAGISVEDACVWGSSSSGVGNWAPLNFGAGSSDGVAYLSLIPNPNNGNALNFNVKIVAADDSSTVNGECIYENGSFSGGSDGCTVSVTAGKAKFVLYN",glycan array binding signal (z-score),[1],-0.226
same,glycan array binding signal (z-score),Gal3S(b1-4)Glc,-0.367
same,glycan array binding signal (z-score),Gal3S(b1-4)Glc6S,1.03
same,glycan array binding signal (z-score),Gal3S(b1-4)GlcNAc,0.02
same,glycan array binding signal (z-score),[2],0.693
same,glycan array binding signal (z-score),[3],0.234
same,glycan array binding signal (z-score),[4],-0.491
same,glycan array binding signal (z-score),Gal3S4S(b1-4)GlcNAc,-0.244
same,glycan array binding signal (z-score),Gal3S6S(b1-4)GlcNAc,1.73
same,glycan array binding signal (z-score),Gal3S6S(b1-4)GlcNAc6S,1.36
same,glycan array binding signal (z-score),Gal4S(b1-4)GlcNAc,-0.198
same,glycan array binding signal (z-score),Gal4S6S(b1-4)GlcNAc,0.289
same,glycan array binding signal (z-score),Gal6P(b1-4)GlcNAc,-1.09
same,glycan array binding signal (z-score),Gal6S(b1-3)GlcNAc,-0.392
same,glycan array binding signal (z-score),Gal6S(b1-3)GlcNAc6S,1.12
same,glycan array binding signal (z-score),Gal6S(b1-4)Glc,-0.521
same,glycan array binding signal (z-score),Gal6S(b1-4)Glc6S,-1.75
same,glycan array binding signal (z-score),Gal6S(b1-4)GlcNAc,0.353
same,glycan array binding signal (z-score),Gal6S(b1-4)GlcNAc6S,1.73
same,glycan array binding signal (z-score),GalNAc(a1-3)Gal,0.676
same,glycan array binding signal (z-score),GalNAc(a1-3)GalNAc,-0.329
same,glycan array binding signal (z-score),[5],0.44
same,glycan array binding signal (z-score),[6],-0.339
same,glycan array binding signal (z-score),GalNAc(b1-3)Gal,0.255
same,glycan array binding signal (z-score),[7],0.975
same,glycan array binding signal (z-score),[8],0.11
same,glycan array binding signal (z-score),[9],-0.492
same,glycan array binding signal (z-score),GalNAc(b1-3)GalNAc,-1.61
same,glycan array binding signal (z-score),GalNAc(b1-3)GlcNAc,0.143
same,glycan array binding signal (z-score),GalNAc(b1-4)Gal(b1-4)Glc,-0.35
same,glycan array binding signal (z-score),GalNAc(b1-4)GlcNAc,-0.514
same,glycan array binding signal (z-score),[10],-0.288
same,glycan array binding signal (z-score),[11],0.301
same,glycan array binding signal (z-score),[12],-0.87
same,glycan array binding signal (z-score),GalNAc(b1-4)GlcNAc6S,0.524
same,glycan array binding signal (z-score),GalNAc(b1-6)GalNAc,-0.032
same,glycan array binding signal (z-score),GalNAc3S(b1-4)GlcNAc,0.123
same,glycan array binding signal (z-score),GalNAc3S(b1-4)GlcNAc3S,0.933
same,glycan array binding signal (z-score),[13],-0.241
same,glycan array binding signal (z-score),GalNAc4S6S(b1-4)GlcNAc,0.715
same,glycan array binding signal (z-score),GalNAc6S(b1-4)GlcNAc,0.217
same,glycan array binding signal (z-score),Glc(a1-4)Glc,-0.169
same,glycan array binding signal (z-score),[14],-0.406
same,glycan array binding signal (z-score),Glc(a1-6)Glc(a1-6)Glc,-1.11
same,glycan array binding signal (z-score),[15],0.06

# A portion from the list above, for reference:
binder,measurement,setting,value
"SUN4P (Saccharomyces cerevisiae), P53616 (protein) MGSSHHHHHHSSGLVPRGSHNGSIYGDLADFSGPYEKFEDGTIPCGQFPSGQGVIPISWLDEGGWSGVENTDTSTGGSCKEGSYCSYACQPGMSKTQWPSDQPSDGRSIGGLLCKDGYLYRSNTDTDYLCEWGVDAAYVVSELSNDVAICLTDYPGTENMVIPTYVQAGDSLPLTVVDQDTYYTWQGLKTSAQYYVNNAGISVEDACVWGSSSSGVGNWAPLNFGAGSSDGVAYLSLIPNPNNGNALNFNVKIVAADDSSTVNGECIYENGSFSGGSDGCTVSVTAGKAKFVLYN",glycan array binding signal (z-score),GalNAc(b1-3)Gal,0.255
same,glycan array binding signal (z-score),[7],0.975
